Laboratory results from doi:10.1101/2020.04.18.047571.
Results are given in words; binding and its absence hold for the method and conditions named. Binding seen in cells or lysates may run through a third protein. Some binding calls cover weakened binding; strength is not graded here.

By UniProt entry, the sequences of proteins in these tests, tags left out.
UniProt P06730: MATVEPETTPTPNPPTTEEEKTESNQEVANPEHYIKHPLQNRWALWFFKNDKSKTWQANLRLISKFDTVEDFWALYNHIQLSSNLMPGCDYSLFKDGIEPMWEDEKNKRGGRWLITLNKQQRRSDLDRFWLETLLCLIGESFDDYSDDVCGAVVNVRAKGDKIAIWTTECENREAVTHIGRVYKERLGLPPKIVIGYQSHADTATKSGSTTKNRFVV

Target: 3X-flag/1X-myc epitope-tagged human eIF4E (flag-eIF4E) (human) (UniProt P06730)
Assay: co-IP

binding: binds
B1: 4E-BP2 (eIF4E-binding protein 2) (protein, UniProt Q13542 1-120)
chain: MSSSAGSGHQPSQSRAIPTRTVAISDAAQLPHDYCTTPGGTLFSTTPGGTRIIYDRKFLLDRRNSPMAQTPPCHLPNIPGVTSPGTLIEDSKVEVNNLNNLNNHDRKHAVGDDAQFEMDI
